# Primary screen of a compound library

Measurements from “University of Dundee, Small-Polar-MMV Screening Library” (2021), ChEMBL document CHEMBL3988442.

A: 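Whole-cell assay for inhibitors of Mycobacterium tuberculosis growth, labelled Cornell in the record; the read-out is not stated. The concentration is filed as 10 mM, unlikely as a test dose, so the dose is not known. Higher means stronger inhibition (inferred from two other growth screens of the library). About 53,000 compounds were tested under these conditions; 1.7% (about 900) showed 50% or more at least once.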
B: 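Assay on Mycobacterium tuberculosis, filed only as a heat shock assay from Cornell; the read-out is not stated. The concentration is filed as 10 mM, unlikely as a test dose, so the dose is not known. The record gives no direction; compounds that gave an IC50 in retests scored well above the rest, so higher reads as stronger inhibition. About 69,000 compounds were tested under these conditions; 1.4% (about 930) showed 50% or more at least once.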

Each number is a percent effect as filed.
The record does not define 0% and 100%; most values in the screen are far below 50% and negative numbers occur (in some assays of this library far below -100).
Compounds were drawn at random from those tested, without regard to their results.
A dash means the value is not listed here; it may have been measured.

[H][C@@]12COC[C@]1([H])[C@@H](OCCN(C)C)CN2C(=O)c1ccc(C#N)cc1 gave A: -7.311%; B: -2.445%.
c1ccc(N2CCOC(Cc3cccnc3)C2)cc1 (stereo not given) gave A: -11.88%; B: -2.125%.
CNS(=O)(=O)CC(=O)N1CC2(CCCC2)c2c(F)cccc21 gave A: 21.65%; B: 13.66%.
O=C(NCC1CC1)C1CN(C(=O)c2ccnnc2)CC12CCOCC2 (stereo not given) gave A: 17.75%; B: 7.013%.
COc1cccc(-n2nnc(C(=O)N3CCNC(=O)C3)c2C)c1 gave A: -5.175%; B: 8.873%.
O=C(C1CCCO1)N1CCc2onc(-c3ccc(Cl)cc3)c2C1 (stereo not given) gave A: -0.5877%; B: -8.925%.
[H][C@]12CCN[C@@]1([H])CN(C(=O)NCC(C)C)C2 gave B: 0.08516%.
Cc1ccc(C(O)CNCc2c(C(C)C)nn(C)c2N(C)C)cc1 (stereo not given) gave A: 104.4%; B: 25.89%.
COc1ccc2c(c1)OCC(Cc1ccc(N)cn1)C2 (stereo not given) gave A: -16.01%; B: 2.637%.
Cn1c(C2CC2)nc2c1CCN(CCc1ccccn1)C2 gave A: 13.12%; B: 2.133%.
Cc1ccnn1CCC(=O)N1CCOC(CCc2ccccc2)C1 (stereo not given) gave A: 11.4%; B: -13.82%.
Cc1noc(-c2ccnc(Oc3ccc(CN4CCCC4)cc3C)c2)n1 gave A: 27.68%; B: 29.42%.
CS(=O)(=O)CCN(Cc1cccc(O)c1)C1CCC(O)CC1 (stereo not given) gave A: -30.12%; B: 4.308%.
Cc1nc2n(n1)CCN(S(=O)(=O)c1ccc(OC(F)(F)F)cc1)C2 gave A: 18.89%; B: -23.2%.
Cc1ccnc(NCc2ccccc2N2CCOCC2)n1 gave A: 10.31%; B: 1.323%.
CC(C)Cc1noc(CN(C)c2ncccn2)n1 gave B: 9.292%.
O=S(=O)(Cc1ccccc1F)NC(CO)c1ccco1 (stereo not given) gave A: -24.99%; B: -12.7%.
Cc1cc(C(=O)N2CCCC2c2nnc3n2CCCCC3)on1 (stereo not given) gave A: -9.54%; B: -17.74%.
CN(C)CCCNC(=O)c1ccnc(OCc2ccccc2)c1 gave A: 1.24%; B: -12.94%.
O=C(c1ccc(Cn2cc(Br)cn2)cc1)N1CCOCC1 gave B: -7.866%.
COc1cccc(SCCCn2cnc3c(N)ncnc32)c1 gave A: -5.92%; B: -28.49%.
[H][C@@]12COC[C@]1(CNC(=O)c1ccco1)CN(Cc1cccc(F)c1)C2 gave A: 19.32%; B: 9.52%.
O=C(O)C(F)(F)F.O=C(c1cnccn1)N1CCCC2(CCN(Cc3ccsc3)C2)C1 (stereo not given) gave A: 5.733%; B: -13.13%.
C=C(C)CN(CC)C(=O)c1cc(F)ccc1NS(C)(=O)=O gave A: -0.4209%; B: 13.91%.
COc1ccc2c(c1)C(=O)NC1(CC2)CCN(Cc2ccccc2)C1 (stereo not given) gave A: 11.52%; B: -0.6579%.
CCOC(=O)Cn1c(=O)c(OCC)nc2cnccc21 gave A: 5.185%; B: 11.46%.
COC(=O)[C@H]1CN(C(=O)NC(C)C)CCN1C(=O)C1CCCCC1 gave B: -9.657%.
c1cc(CN2CCOCC3(CCNCC3)C2)ccn1 gave A: -34.86%; B: -26.96%.
CCc1n[nH]c(=O)c(C(=O)N2CCSC(C)(C)C2)c1CC gave A: 0.8728%; B: 2.075%.
[H][C@]12CNC[C@@]1(C(=O)NCc1cc(C)n[nH]1)CN(C(=O)COC)C2 gave A: 3.948%; B: -4.697%.
CC(NC(=O)N1CCN(c2cccs2)CC1)c1ccc(C#N)cc1 (stereo not given) gave A: 66.35%; B: 9.347%.
COc1ccc2c(c1)C(=O)NC1(CC2)CCN(Cc2ccncc2)C1 (stereo not given) gave A: 12.37%; B: 12.85%.
COCCCC1CCCN(Cc2c(C)ccc3ncccc23)C1 (stereo not given) gave A: 21.41%; B: -2.717%.
O=C(c1cnc2c(cnn2C2CCCC2)c1)N1CCCSCC1 gave A: 22.52%; B: -8.87%.
CC(C)N1CCC(N2CCOC3(CCCC3)C2)C1=O (stereo not given) gave B: 5.53%.
Cc1ncncc1C(=O)NCCn1nc2ccccn2c1=O gave B: -15.33%.
Cc1noc(CN(C)c2nc(-c3ccco3)nc3c2CCN(C)CC3)n1 gave A: -11.76%; B: -14.51%.
[H][C@@]12CS(=O)(=O)C[C@]1([H])N(C(=O)c1ccc(C)cc1F)CCN2CCOC gave A: 0.9988%; B: 13.34%.
[H][C@@]12NC(=O)N[C@@H](c3ccc(C(=O)O)cc3)[C@]1([H])CCCO2 gave A: -14.16%; B: -16.68%.
OCc1csc(N2CCCC(CO)(Cc3cccc(Cl)c3)C2)n1 (stereo not given) gave A: -42.61%; B: -22.5%.
Cc1cc(C(=O)Nc2cnn(CC(F)(F)F)c2)nc(N2CCOCC2)n1 gave B: 9.803%.
c1ncc2c(n1)CN(Cc1cn3ccsc3n1)CC2 gave B: -14.66%.

The last 4 entries again:

compound	A	B
[H][C@@]12NC(=O)N[C@@H](c3ccc(C(=O)O)cc3)[C@]1([H])CCCO2	-14.16	-16.68
OCc1csc(N2CCCC(CO)(Cc3cccc(Cl)c3)C2)n1 (stereo not given)	-42.61	-22.5
Cc1cc(C(=O)Nc2cnn(CC(F)(F)F)c2)nc(N2CCOCC2)n1	-	9.803
c1ncc2c(n1)CN(Cc1cn3ccsc3n1)CC2	-	-14.66